From publication PMC10909764
No constants are given. Whether binding was seen depends on the method and setting. In cells and extracts the contact can be indirect. Some binding calls cover weakened binding; strength is not graded here. For some assays here: Where a sequence is shown, tags or fusion partners need not be part of it.

The chains behind the UniProt entries cited, without tags or fusion partners. Residues count along the entry.
UniProt P11717, residues 41-2491: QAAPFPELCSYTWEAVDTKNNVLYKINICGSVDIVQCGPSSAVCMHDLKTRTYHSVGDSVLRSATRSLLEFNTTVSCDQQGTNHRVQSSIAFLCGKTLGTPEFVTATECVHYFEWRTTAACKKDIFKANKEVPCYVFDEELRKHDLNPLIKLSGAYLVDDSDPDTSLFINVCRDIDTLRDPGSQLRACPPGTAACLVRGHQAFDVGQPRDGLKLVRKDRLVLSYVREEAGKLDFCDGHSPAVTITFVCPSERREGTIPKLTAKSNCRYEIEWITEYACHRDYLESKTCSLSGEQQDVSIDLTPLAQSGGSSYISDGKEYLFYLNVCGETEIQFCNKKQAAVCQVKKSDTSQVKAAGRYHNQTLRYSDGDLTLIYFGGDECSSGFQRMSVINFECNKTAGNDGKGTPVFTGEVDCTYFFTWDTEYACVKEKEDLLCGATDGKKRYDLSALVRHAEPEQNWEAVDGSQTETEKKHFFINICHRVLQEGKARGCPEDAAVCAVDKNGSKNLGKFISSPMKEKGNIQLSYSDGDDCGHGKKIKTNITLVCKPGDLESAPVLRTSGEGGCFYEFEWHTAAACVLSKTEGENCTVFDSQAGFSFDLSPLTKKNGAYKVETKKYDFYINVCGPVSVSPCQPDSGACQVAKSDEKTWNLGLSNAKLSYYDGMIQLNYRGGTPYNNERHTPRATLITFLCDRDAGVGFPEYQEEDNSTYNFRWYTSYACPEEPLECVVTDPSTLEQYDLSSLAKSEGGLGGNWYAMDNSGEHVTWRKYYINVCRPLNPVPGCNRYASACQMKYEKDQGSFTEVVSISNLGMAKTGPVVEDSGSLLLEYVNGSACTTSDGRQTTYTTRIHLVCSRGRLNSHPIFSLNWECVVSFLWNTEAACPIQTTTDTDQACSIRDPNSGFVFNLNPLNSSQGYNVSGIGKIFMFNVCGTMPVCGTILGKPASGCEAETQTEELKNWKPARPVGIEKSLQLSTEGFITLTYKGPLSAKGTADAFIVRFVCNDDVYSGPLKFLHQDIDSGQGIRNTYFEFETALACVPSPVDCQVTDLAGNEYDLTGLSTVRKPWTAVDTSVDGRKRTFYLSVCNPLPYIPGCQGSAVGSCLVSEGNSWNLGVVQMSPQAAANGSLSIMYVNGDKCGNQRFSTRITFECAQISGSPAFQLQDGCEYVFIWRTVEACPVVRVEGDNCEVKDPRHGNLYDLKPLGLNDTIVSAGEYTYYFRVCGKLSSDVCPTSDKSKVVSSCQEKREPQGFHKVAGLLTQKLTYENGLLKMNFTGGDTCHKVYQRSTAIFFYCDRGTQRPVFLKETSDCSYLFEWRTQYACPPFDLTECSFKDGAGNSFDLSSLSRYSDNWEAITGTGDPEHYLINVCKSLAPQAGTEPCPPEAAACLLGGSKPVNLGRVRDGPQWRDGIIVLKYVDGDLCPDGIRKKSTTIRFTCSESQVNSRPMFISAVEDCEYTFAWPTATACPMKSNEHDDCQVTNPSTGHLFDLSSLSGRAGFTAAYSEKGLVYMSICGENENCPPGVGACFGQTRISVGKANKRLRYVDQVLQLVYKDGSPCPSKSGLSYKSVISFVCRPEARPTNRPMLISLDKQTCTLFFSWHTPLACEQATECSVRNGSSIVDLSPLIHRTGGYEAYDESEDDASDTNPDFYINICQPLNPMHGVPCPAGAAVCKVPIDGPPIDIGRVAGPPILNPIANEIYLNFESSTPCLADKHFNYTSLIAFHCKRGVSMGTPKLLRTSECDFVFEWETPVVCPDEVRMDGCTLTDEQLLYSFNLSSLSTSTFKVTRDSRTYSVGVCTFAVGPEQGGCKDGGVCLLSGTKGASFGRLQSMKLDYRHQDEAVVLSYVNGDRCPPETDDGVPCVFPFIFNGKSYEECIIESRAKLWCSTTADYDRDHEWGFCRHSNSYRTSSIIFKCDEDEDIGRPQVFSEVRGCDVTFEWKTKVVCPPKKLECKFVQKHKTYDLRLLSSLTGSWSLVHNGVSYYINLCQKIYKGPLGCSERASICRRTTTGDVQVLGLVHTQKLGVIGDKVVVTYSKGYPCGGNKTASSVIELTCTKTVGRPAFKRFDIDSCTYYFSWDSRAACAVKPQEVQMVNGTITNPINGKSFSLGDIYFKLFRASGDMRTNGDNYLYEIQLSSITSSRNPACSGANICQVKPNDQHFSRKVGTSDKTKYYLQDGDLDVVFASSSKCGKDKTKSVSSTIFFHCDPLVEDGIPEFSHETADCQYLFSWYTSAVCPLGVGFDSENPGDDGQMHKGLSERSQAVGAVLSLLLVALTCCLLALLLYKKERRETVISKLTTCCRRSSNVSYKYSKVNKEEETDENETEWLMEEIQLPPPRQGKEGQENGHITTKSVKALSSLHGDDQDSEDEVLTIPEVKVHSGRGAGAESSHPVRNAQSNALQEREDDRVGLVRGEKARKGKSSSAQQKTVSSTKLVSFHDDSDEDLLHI
UniProt P35670: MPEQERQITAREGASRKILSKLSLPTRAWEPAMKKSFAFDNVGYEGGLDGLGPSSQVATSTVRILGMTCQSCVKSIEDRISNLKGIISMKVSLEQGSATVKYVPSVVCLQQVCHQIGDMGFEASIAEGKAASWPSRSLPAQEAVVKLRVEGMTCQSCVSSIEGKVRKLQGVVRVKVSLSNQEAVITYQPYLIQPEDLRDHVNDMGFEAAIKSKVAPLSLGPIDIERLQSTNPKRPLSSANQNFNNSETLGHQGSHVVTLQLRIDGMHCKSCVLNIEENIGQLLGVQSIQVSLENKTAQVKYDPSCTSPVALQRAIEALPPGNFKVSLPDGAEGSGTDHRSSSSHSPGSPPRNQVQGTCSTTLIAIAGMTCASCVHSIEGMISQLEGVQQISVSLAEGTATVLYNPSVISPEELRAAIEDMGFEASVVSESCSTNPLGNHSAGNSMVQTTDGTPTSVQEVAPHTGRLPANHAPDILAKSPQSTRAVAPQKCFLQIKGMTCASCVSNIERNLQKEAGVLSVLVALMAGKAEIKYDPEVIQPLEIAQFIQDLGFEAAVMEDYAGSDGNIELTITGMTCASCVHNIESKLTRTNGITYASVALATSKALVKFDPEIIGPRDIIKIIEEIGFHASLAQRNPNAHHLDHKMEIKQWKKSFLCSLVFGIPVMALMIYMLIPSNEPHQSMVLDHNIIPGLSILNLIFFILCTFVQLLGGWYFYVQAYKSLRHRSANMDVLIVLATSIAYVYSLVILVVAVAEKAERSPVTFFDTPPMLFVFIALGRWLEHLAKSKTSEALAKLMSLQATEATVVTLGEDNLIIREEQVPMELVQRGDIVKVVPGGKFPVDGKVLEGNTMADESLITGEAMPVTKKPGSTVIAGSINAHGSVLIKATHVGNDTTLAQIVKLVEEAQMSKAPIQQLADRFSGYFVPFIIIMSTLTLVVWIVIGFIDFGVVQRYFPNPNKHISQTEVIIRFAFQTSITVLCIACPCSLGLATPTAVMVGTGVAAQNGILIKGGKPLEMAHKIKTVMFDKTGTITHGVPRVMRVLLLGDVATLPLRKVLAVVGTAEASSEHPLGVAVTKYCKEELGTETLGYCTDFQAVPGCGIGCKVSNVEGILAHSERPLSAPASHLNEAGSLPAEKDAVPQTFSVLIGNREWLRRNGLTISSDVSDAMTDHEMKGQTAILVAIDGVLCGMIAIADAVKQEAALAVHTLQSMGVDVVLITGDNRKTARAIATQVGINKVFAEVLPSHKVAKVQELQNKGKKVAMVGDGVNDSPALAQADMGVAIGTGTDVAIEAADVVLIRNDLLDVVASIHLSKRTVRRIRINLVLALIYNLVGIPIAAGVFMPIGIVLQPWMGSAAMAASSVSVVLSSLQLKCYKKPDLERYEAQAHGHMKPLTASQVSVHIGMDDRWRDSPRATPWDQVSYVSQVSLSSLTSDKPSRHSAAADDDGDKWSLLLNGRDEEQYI
UniProt O43747: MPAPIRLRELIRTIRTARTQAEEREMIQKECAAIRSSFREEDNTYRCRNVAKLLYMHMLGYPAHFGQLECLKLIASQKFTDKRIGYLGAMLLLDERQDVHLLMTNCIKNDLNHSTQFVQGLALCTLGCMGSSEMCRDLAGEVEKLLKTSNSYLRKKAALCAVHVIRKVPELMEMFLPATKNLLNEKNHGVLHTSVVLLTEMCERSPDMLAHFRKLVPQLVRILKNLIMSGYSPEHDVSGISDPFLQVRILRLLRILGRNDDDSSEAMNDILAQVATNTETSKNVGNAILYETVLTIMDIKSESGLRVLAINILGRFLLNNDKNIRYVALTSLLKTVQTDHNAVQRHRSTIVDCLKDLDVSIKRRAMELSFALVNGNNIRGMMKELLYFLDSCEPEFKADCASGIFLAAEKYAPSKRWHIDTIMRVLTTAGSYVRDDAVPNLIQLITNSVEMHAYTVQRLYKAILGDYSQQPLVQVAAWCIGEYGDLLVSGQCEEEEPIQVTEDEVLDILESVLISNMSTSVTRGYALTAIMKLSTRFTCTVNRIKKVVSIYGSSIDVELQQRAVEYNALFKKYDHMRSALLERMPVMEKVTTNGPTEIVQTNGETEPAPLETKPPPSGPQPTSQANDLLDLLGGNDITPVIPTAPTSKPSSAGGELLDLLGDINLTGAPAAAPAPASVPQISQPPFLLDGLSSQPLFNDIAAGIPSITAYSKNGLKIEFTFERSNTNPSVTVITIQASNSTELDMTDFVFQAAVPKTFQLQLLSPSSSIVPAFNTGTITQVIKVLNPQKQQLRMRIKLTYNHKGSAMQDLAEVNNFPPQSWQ

Legend:
[1] = biological target: T1, μ1A(WT)-GFP (UniProt P35585); assay: co-IP; GFP-Trap agarose on lysates of PEAK cells expressing GFP or μ1A-GFP forms; 10 mM Tris/HCl pH 7.5, 150 mM NaCl, 0.5 mM EDTA, 0.5% Nonidet P40; 2 h at 4 °C; Western blot of endogenous proteins
T1 sequence: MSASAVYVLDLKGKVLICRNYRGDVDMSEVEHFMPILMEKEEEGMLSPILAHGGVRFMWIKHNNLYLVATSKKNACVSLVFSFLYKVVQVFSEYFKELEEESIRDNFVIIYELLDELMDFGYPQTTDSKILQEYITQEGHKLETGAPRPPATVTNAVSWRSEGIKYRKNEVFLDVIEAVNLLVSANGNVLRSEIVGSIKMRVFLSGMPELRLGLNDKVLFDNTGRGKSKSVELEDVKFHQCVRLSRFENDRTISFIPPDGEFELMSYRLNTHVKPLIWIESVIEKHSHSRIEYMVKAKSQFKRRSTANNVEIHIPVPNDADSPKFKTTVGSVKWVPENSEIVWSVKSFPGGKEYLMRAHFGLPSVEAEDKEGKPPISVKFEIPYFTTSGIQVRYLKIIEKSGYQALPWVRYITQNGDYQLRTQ

[2] = biological target: Cation-Independent Mannose-6-phosphate receptor (CI-MPR), endogenous (human (endogenous in PEAK/HEK-293T and HeLa)) (UniProt P11717); assay: co-IP; HeLa lysate in PBS with 0.1% Triton X-100, pH 7.4; immunoprecipitation with mouse anti-CI-MPR antibody (anti-CD4 as negative control) and protein G-Sepharose at 4 °C; Western blot
[3] = biological target: T2, μ1A(D174A)-GFP (UniProt P35585); assay: co-IP; GFP-Trap agarose on lysates of PEAK cells expressing GFP or μ1A-GFP forms; 10 mM Tris/HCl pH 7.5, 150 mM NaCl, 0.5 mM EDTA, 0.5% Nonidet P40; 2 h at 4 °C; Western blot of endogenous proteins
T2 sequence: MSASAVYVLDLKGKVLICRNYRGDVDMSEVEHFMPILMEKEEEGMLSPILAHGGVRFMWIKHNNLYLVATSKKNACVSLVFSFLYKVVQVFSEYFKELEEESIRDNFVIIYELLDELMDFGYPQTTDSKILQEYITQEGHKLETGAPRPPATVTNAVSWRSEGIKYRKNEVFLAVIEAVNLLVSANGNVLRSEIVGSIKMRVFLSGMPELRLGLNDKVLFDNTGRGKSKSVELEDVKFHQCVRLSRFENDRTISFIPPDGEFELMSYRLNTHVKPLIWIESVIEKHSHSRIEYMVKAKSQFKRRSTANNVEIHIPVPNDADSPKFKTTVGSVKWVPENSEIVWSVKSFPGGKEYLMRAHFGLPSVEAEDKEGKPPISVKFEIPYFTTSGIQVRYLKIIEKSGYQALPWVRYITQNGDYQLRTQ

[4] = biological target: T3, μ1A(W408S)-GFP (UniProt P35585); assay: as above
T3 sequence: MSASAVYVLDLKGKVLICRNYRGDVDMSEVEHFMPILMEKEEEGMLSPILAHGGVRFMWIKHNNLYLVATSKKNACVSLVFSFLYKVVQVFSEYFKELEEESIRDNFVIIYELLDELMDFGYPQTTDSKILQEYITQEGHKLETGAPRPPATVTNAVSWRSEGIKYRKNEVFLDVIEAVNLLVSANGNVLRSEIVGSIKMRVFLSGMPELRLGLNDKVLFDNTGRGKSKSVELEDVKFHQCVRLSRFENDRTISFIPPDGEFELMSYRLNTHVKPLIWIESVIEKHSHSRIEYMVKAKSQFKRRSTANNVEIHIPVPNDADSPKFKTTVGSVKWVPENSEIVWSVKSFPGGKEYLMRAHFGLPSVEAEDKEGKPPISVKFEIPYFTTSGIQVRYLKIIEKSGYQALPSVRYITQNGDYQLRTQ

[5] = biological target: GFP-ATP7B (UniProt P35670); assay: co-IP; GFP-Trap on lysates of PEAK cells expressing GFP or GFP-ATP7B, treated 2 h with 200 μM CuCl2; 20 mM HEPES pH 7.5, 250 mM sucrose, 0.1% Nonidet P40, 130 mM NaCl, 1 mM EDTA; overnight at 4 °C; Western blot

Measured: binding

Cation-Independent Mannose-6-phosphate receptor (CI-MPR), endogenous (from UniProt P11717 41-2491)
binds: [1]

γ1-adaptin subunit of AP-1, endogenous (from UniProt O43747 1-822)
binds: all assays above

B1: γ2-adaptin subunit of AP-1, endogenous (protein, UniProt O75843 1-785)
chain: MVVPSLKLQDLIEEIRGAKTQAQEREVIQKECAHIRASFRDGDPVHRHRQLAKLLYVHMLGYPAHFGQMECLKLIASSRFTDKRVGYLGAMLLLDERHDAHLLITNSIKNDLSQGIQPVQGLALCTLSTMGSAEMCRDLAPEVEKLLLQPSPYVRKKAILTAVHMIRKVPELSSVFLPPCAQLLHERHHGILLGTITLITELCERSPAALRHFRKVVPQLVHILRTLVTMGYSTEHSISGVSDPFLQVQILRLLRILGRNHEESSETMNDLLAQVATNTDTSRNAGNAVLFETVLTIMDIRSAAGLRVLAVNILGRFLLNSDRNIRYVALTSLLRLVQSDHSAVQRHRPTVVECLRETDASLSRRALELSLALVNSSNVRAMMQELQAFLESCPPDLRADCASGILLAAERFAPTKRWHIDTILHVLTTAGTHVRDDAVANLTQLIGGAQELHAYSVRRLYNALAEDISQQPLVQVAAWCIGEYGDLLLAGNCEEIEPLQVDEEEVLALLEKVLQSHMSLPATRGYALTALMKLSTRLCGDNNRIRQVVSIYGSCLDVELQQRAVEYDTLFRKYDHMRAAILEKMPLVERDGPQADEEAKESKEAAQLSEAAPVPTEPQASQLLDLLDLLDGASGDVQHPPHLDPSPGGALVHLLDLPCVPPPPAPIPDLKVFEREGVQLNLSFIRPPENPALLLITITATNFSEGDVTHFICQAAVPKSLQLQLQAPSGNTVPARGGLPITQLFRILNPNKAPLRLKLRLTYDHFHQSVQEIFEVNNLPVESWQ
binds: all assays above
